According to PMC7692546:
No constants are given. Whether binding was seen depends on the method and setting. Binding can be weak; no strength is given.

Molecular target: T1, Human cathepsin K (human) (UniProt P43235)
T1 sequence: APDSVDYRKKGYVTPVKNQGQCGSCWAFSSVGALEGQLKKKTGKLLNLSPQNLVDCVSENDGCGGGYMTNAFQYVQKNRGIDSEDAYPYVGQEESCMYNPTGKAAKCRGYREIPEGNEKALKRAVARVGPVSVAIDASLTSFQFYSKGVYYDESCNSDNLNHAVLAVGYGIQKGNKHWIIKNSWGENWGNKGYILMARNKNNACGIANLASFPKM
Assay: enzyme inhibition (fluorogenic peptide substrate); KT inhibitor (2 μM) incubated with each protease in 100 μl reaction buffer for 15 min at 37 °C, then fluorogenic substrate; inhibition constants by the Morrison equation for tight-binding inhibition; both purified

With “Recombinant FhKT1.1 (Fasciola hepatica Kunitz-type inhibitor 1.1)” the binding was “binds”.
